# Results taken from the supplement of paper PMC12819154, “High-throughput peptide-centric local stability assay extends protein–ligand identification to membrane proteins, tissues and bacteria” (Nature Structural & Molecular Biology, 2025).
# Amino acid sequences for entries named in this document (tags omitted). A change or cut given only in a name is not applied to a line headed by its entry.
# UniProt O95684: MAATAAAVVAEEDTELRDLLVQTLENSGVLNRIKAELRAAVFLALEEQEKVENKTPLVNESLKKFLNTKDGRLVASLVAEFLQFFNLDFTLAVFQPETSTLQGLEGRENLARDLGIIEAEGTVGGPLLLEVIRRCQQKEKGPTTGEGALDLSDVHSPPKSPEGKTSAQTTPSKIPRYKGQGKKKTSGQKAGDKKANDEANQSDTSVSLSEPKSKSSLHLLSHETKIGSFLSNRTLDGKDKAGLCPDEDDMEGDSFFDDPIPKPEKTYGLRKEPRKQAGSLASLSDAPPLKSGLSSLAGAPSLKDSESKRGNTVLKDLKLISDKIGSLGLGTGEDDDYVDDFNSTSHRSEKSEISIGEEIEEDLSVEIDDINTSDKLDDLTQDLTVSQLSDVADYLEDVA
# UniProt O95218: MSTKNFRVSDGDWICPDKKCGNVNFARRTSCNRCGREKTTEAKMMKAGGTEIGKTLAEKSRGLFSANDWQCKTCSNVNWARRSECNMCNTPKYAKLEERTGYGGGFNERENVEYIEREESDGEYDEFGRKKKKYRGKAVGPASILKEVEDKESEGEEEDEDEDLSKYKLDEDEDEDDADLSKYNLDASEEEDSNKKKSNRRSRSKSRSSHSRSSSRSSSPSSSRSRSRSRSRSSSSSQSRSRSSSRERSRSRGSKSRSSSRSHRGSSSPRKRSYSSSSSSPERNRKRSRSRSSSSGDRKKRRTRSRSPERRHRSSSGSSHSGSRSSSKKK
# UniProt O94812: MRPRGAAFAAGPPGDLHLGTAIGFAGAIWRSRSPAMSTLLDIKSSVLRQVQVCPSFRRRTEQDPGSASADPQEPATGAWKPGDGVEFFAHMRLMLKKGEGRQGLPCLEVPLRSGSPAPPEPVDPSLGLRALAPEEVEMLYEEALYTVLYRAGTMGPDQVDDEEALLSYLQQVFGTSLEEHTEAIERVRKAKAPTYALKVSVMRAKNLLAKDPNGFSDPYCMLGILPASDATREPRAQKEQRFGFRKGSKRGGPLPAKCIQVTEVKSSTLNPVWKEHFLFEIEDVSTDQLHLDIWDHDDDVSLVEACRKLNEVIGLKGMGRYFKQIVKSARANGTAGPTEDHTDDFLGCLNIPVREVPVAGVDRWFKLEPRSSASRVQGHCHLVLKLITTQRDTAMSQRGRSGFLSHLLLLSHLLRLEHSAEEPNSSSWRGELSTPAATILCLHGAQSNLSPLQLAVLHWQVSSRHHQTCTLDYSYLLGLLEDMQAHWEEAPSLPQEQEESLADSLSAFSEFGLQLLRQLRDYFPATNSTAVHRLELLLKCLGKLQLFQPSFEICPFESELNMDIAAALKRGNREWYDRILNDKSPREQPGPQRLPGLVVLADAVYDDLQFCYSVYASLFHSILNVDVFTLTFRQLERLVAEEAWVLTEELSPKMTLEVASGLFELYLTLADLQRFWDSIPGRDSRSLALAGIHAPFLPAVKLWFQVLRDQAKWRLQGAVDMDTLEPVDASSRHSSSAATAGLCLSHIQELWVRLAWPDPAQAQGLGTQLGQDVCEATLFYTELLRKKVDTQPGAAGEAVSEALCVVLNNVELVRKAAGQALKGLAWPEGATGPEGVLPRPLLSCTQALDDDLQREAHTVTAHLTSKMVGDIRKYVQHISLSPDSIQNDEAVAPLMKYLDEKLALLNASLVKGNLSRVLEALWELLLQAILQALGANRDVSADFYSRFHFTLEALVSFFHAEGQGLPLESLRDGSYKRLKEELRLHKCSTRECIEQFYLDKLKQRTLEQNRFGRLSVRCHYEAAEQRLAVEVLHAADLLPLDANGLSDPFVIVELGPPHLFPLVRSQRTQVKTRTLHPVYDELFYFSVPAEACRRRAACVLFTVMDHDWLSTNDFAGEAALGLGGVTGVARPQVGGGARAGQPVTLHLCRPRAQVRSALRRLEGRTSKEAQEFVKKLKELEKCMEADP
# UniProt O94888: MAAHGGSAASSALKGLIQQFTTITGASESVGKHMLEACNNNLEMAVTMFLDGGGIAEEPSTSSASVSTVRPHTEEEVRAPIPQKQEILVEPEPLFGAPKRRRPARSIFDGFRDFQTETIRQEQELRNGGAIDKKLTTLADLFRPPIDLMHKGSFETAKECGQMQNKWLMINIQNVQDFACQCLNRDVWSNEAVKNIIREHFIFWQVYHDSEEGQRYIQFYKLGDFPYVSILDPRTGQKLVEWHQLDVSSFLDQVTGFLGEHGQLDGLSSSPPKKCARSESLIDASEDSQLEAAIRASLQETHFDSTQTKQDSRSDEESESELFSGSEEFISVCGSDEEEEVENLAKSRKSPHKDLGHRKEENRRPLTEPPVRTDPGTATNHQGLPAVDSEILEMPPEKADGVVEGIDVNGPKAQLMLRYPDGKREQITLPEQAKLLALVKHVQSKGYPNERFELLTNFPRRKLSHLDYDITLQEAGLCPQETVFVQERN
# UniProt O76041: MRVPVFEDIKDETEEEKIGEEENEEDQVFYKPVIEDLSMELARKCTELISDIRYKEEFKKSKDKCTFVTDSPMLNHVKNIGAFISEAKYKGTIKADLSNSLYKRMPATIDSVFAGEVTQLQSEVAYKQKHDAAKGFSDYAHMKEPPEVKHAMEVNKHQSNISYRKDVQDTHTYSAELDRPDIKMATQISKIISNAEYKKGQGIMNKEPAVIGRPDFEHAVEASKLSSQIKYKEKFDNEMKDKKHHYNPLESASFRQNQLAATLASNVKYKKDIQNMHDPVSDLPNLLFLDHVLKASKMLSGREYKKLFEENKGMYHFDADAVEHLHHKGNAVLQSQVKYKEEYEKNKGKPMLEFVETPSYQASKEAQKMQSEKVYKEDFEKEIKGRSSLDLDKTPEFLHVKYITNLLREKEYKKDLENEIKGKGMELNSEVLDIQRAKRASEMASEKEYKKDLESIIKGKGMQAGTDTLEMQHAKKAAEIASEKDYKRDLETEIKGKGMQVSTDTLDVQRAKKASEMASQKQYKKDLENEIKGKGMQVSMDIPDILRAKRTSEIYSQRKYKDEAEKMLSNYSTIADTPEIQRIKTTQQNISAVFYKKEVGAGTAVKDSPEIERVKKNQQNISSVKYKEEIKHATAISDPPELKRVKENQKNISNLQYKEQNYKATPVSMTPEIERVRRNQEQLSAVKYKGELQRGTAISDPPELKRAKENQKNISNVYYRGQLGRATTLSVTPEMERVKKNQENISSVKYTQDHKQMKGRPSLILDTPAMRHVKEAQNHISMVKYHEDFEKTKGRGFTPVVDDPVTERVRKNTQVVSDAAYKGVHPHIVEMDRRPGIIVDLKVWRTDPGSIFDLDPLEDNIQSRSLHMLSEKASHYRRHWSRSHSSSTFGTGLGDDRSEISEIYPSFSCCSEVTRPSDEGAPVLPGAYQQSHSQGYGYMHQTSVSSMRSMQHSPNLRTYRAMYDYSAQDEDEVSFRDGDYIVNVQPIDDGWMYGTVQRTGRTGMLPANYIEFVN
# UniProt O95551: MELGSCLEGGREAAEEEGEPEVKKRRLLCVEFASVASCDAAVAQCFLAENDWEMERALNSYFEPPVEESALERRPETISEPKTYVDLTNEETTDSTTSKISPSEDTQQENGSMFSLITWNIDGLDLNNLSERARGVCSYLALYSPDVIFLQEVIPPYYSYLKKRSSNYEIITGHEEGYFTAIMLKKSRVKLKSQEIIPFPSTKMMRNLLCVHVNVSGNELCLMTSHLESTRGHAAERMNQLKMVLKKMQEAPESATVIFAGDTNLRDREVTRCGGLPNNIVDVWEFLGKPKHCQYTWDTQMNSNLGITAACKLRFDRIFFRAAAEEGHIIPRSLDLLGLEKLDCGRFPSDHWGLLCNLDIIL
# UniProt O75940: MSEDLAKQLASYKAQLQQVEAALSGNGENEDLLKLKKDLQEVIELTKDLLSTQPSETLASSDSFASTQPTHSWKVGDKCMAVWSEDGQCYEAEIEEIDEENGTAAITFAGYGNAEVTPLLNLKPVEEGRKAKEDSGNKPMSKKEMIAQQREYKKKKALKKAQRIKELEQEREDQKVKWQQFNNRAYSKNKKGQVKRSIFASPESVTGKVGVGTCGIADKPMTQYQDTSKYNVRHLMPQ
# UniProt O95707: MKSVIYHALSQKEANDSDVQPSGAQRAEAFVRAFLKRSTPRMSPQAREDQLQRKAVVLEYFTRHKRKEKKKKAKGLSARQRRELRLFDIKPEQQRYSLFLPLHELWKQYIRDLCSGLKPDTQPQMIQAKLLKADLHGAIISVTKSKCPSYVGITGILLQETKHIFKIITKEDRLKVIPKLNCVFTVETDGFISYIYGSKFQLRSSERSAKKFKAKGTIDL
# UniProt O76031, whole entry: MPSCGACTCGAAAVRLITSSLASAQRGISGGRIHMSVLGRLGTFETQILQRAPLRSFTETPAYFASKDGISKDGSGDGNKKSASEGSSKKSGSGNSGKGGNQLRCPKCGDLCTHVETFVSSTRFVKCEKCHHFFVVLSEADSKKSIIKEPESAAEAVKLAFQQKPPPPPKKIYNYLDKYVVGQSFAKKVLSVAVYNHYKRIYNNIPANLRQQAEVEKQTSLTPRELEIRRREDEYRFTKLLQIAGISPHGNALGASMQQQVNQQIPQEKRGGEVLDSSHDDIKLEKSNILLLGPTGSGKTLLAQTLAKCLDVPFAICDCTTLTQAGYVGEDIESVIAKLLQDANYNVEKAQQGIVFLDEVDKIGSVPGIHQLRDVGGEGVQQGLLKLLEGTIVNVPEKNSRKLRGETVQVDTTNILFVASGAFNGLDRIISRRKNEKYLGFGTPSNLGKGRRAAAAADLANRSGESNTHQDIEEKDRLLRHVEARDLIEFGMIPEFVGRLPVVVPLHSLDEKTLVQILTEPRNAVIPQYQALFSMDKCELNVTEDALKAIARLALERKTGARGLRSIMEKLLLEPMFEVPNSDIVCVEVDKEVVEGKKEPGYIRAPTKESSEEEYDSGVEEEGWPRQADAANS
# UniProt O75787, whole entry: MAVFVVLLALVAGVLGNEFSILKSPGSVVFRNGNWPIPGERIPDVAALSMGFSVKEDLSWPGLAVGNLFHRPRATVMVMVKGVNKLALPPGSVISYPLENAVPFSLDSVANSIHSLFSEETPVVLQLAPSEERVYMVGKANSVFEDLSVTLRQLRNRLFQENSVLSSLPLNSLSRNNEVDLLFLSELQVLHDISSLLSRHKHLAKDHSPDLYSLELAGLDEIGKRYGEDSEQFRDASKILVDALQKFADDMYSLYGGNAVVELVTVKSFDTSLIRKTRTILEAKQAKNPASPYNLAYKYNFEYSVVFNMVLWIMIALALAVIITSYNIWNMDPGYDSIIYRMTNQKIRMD
# UniProt O95208: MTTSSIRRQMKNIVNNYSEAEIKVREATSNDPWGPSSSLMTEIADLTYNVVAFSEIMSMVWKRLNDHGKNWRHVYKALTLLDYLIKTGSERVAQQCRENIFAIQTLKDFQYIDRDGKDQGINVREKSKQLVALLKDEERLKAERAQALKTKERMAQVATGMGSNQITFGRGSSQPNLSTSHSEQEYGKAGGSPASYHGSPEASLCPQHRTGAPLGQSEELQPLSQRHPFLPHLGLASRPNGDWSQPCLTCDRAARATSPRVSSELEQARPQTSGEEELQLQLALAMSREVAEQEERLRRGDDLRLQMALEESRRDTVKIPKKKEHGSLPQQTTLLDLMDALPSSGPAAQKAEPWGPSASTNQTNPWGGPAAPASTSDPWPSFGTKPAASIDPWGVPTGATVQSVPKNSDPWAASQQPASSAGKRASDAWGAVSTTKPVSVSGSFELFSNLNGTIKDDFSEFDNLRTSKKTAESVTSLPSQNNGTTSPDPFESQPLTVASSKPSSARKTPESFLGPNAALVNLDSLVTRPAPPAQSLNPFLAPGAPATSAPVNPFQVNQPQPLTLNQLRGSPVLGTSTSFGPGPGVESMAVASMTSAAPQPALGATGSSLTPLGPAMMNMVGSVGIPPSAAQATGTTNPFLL
# UniProt O75489, whole entry: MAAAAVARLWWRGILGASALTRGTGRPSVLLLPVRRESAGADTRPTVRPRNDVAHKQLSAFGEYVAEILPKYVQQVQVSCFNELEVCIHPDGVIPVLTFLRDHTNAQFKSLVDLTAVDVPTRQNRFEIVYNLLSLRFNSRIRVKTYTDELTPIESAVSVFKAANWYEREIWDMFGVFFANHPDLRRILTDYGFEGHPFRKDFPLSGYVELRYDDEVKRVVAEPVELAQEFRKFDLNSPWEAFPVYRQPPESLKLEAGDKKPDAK
# UniProt O75586: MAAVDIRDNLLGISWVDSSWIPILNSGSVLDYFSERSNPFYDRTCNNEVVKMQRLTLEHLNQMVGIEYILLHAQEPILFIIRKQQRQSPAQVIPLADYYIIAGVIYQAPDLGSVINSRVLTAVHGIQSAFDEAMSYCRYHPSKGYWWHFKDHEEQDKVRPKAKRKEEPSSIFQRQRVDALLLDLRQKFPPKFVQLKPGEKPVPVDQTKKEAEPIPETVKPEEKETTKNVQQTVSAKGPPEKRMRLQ
# UniProt O95168, whole entry: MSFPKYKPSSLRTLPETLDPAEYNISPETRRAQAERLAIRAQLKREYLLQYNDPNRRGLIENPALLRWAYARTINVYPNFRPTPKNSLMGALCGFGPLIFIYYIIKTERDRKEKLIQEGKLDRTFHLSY
# Some of the results follow. Most values lie at the level of the controls, where differences are scatter.
# Compound: Cc1nc(Nc2ncc(C(=O)Nc3c(C)cccc3Cl)s2)cc(N2CCN(CCO)CC2)n1 [dasatinib]
# Experiment: log2 fold change of tryptic peptide abundance, ligand vs vehicle (limited proteolysis) (log2 ratio); higher = more trypsin-susceptible (destabilized)
# Conditions: ligand concentration: 5 uM; sample: K562 cleared lysate
row,Target,log2 fold change
1,"UniProt O95758 (peptide sequence: EGQEDQGLTKDFSNSPLHR, peptide start residue: 440)",-0.22
2,"FGFR1OP (peptide sequence: AAVFLALEEQEKVENK, peptide start residue: 39) (UniProt O95684)",0.128
3,"ZRANB2 (peptide sequence: GKAVGPASILK, peptide start residue: 136) (UniProt O95218)",-0.347
4,"SOD1 (peptide sequence: KHGGPKDEER, peptide start residue: 71) (UniProt P00441)",-0.63
5,"UniProt O94812 (peptide sequence: AAGQALK, peptide start residue: 816)",-0.316
6,"UBXN7 (peptide sequence: AAHGGSAASSALK, peptide start residue: 2) (UniProt O94888)",0.152
7,"NEBL (peptide sequence: DEAEKMLSNYSTIADTPEIQR, peptide start residue: 562) (UniProt O76041)",-0.102
8,"SNRNP200 (peptide sequence: DLLPYGFAIHHAGMTR, peptide start residue: 776) (UniProt O75643)",-0.33
9,"UniProt O95551 (peptide sequence: SLDLLGLEK, peptide start residue: 333)",-0.181
10,"DHRS3 (peptide sequence: SLMDSDDDALLK, peptide start residue: 131) (UniProt O75911)",-0.345
11,"SMNDC1 (peptide sequence: ELEQEREDQK, peptide start residue: 166) (UniProt O75940)",0.181
12,"UniProt O95478 (peptide sequence: AGKWEVPLPK, peptide start residue: 114)",-0.333
13,"POP4 (peptide sequence: SVIYHALSQKEANDSDVQPSGAQR, peptide start residue: 3) (UniProt O95707)",0.173
14,"ERAL1 (peptide sequence: IGWPHFK, peptide start residue: 297) (UniProt O75616)",0.34
15,"RSL1D1 (peptide sequence: EQTPEHGK, peptide start residue: 338) (UniProt O76021)",-0.172
16,"UniProt O95049 (peptide sequence: AVGVGPGSSAGSNAR, peptide start residue: 557)",-0.422
17,"CLPX (peptide sequence: FVKCEKCHHFFVVLSEADSK, peptide start residue: 124) (UniProt O76031)",-0.635
18,"ATP6AP2 (peptide sequence: ATVMVMVK, peptide start residue: 74) (UniProt O75787)",-0.4
19,"KIF4A (peptide sequence: EMCDVEQVLSK, peptide start residue: 1169) (UniProt O95239)",-0.287

row,Target,log2 fold change
1,"EPN2 (peptide sequence: GSSQPNLSTSHSEQEYGK, peptide start residue: 171) (UniProt O95208)",0.462
2,"SOGA1 (peptide sequence: KPEPLSPASYHQPEGVAR, peptide start residue: 1315) (UniProt O94964)",-0.719
3,"LYPLA1 (peptide sequence: TLVNPANVTFK, peptide start residue: 191) (UniProt O75608)",-0.119
4,"UniProt O94804 (peptide sequence: KSLHINGGGSAAEQR, peptide start residue: 823)",-1.08
5,"UniProt O95747 (peptide sequence: IVEEPQSNR, peptide start residue: 489)",-0.0761
6,"NDUFS3 (peptide sequence: ILTDYGFEGHPFR, peptide start residue: 187) (UniProt O75489)",0.362
7,"MED6 (peptide sequence: KEAEPIPETVKPEEK, peptide start residue: 209) (UniProt O75586)",0.194
8,"PIAS2 (peptide sequence: VSSQPCTK, peptide start residue: 436) (UniProt O75928)",-0.427
9,"MLYCD (peptide sequence: EAAVLLQAEDR, peptide start residue: 118) (UniProt O95822)",-0.607
10,"SNX4 (peptide sequence: YSEFELLR, peptide start residue: 107) (UniProt O95219)",-0.116
11,"YIF1A (peptide sequence: AYHSGYGAHGSK, peptide start residue: 2) (UniProt O95070)",-0.0271
12,"MYCBP2 (peptide sequence: VYNATSDADLKEHMVGIIFSR, peptide start residue: 3939) (UniProt O75592)",-0.46
13,"UniProt O95931 (peptide sequence: LVMAYEEKEER, peptide start residue: 53)",-0.0459
14,"NDUFB4 (peptide sequence: TINVYPNFRPTPK, peptide start residue: 73) (UniProt O95168)",-0.517
15,"SURF6 (peptide sequence: MKWTNLLYK, peptide start residue: 268) (UniProt O75683)",-0.194
16,"TOX4 (peptide sequence: TVVVEAGKK, peptide start residue: 200) (UniProt O94842)",-0.13
17,"HPRT1 (peptide sequence: DLNHVCVISETGKAK, peptide start residue: 201) (UniProt P00492)",0.631
18,"PRKD3 (peptide sequence: LHGDMLEMILSSEK, peptide start residue: 630) (UniProt O94806)",0.19

# Some of the entries above, reformatted:
row | Target | log2 fold change
6 | NDUFS3 (peptide sequence: ILTDYGFEGHPFR, peptide start residue: 187) (UniProt O75489) | 0.362
18 | PRKD3 (peptide sequence: LHGDMLEMILSSEK, peptide start residue: 630) (UniProt O94806) | 0.19
